{
  "source": "paper PMC5615036",
  "about": "“Crystal structure of an ASCH protein from Zymomonas mobilis and its ribonuclease activity specific for single-stranded RNA”",
  "experiment_in_all_cases": "EMSA",
  "key": {"[1]": {"biological_target": "T1, ZmASCH Y47F (Zymomonas mobilis ZM4) (UniProt Q5NP14)", "T1 sequence (looked up)": "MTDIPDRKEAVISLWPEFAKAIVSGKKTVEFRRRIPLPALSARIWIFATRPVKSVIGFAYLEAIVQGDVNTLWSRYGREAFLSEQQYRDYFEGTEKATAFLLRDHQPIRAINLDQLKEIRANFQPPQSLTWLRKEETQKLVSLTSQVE", "details": "10 mM Mg2+, substantially decreased, EMSA: 20 mM Tris-HCl pH 7.5, 10 mM Mg acetate, 300 mM KCl, 100 ng/uL BSA, 100 ng/uL heparin, 30 min at 310 K, recombinant protein, residues 1-148, protein details: N-terminal His6, label: 5'-32P"}, "[2]": {"biological_target": "T2, ZmASCH S128A (Zymomonas mobilis ZM4) (UniProt Q5NP14)", "T2 sequence (looked up)": "T1 sequence (looked up) with F47Y, S128A", "details": "10 mM Mg2+, lesser decrease than K53E, EMSA: 20 mM Tris-HCl pH 7.5, 10 mM Mg acetate, 300 mM KCl, 100 ng/uL BSA, 100 ng/uL heparin, 30 min at 310 K, recombinant protein, residues 1-148, protein details: N-terminal His6, label: 5'-32P"}, "[3]": {"biological_target": "T3, ZmASCH K53E (Zymomonas mobilis ZM4) (UniProt Q5NP14)", "T3 sequence (looked up)": "T1 sequence (looked up) with F47Y, K53E", "details": "10 mM Mg2+, EMSA: 20 mM Tris-HCl pH 7.5, 10 mM Mg acetate, 300 mM KCl, 100 ng/uL BSA, 100 ng/uL heparin, 30 min at 310 K, recombinant protein, residues 1-148, protein details: N-terminal His6, label: 5'-32P"}, "[4]": {"biological_target": "T4, ZmASCH wild-type (Zymomonas mobilis ZM4) (UniProt Q5NP14)", "T4 sequence (looked up)": "T1 sequence (looked up) with F47Y", "details": "10 mM Mg2+, RNA is degraded; EMSA: 20 mM Tris-HCl pH 7.5, 10 mM Mg acetate, 300 mM KCl, 100 ng/uL BSA, 100 ng/uL heparin, 30 min at 310 K; recombinant protein; residues 1-148; protein details: N-terminal His6; label: 5'-32P"}},
  "note": "Positions count from the first letter of the chain named. For some of these results: The comparison behind a weaker result is the experiment's own reference, which may not be listed here. Tags and fusion partners may be left off the protein sequences shown. For some of these results: Construct, isoform or probe ends are uncertain for at least one entry. For some of these results: At least one verdict was read from the data and is not stated in words by the source.",
  "data": [
    {"sequence": "AUCAGCUCGUCACAACAUUACUUCAUCAAC [ssRNA(30mer) (= probe 8)]", "values": [
      {"measurement": "binding result", "setting": "[1]", "result": "binds more weakly"},
      {"measurement": "binding result", "setting": "[2]", "result": "binds more weakly"},
      {"measurement": "binding result", "setting": "[3]", "result": "binds more weakly"},
      {"measurement": "binding result", "setting": "[4]", "result": "binds"}
    ]},
    {"sequence": "ATCAGCTCGTCACAACATTACTTCATCAAC [ssDNA(30mer)]", "values": [
      {"measurement": "binding result", "setting": "[1]; single-stranded DNA", "result": "binds more weakly"},
      {"measurement": "binding result", "setting": "[2]; single-stranded DNA", "result": "binds more weakly"},
      {"measurement": "binding result", "setting": "[3]; single-stranded DNA", "result": "binds more weakly"}
    ]}
  ]
}
